Assay results published in the supplement of paper PMC11732987, “Enantioselective OTUD7B fragment discovery through chemoproteomics screening and high-throughput optimisation” (Communications Chemistry, 2025).
Some of the results follow. The data scatter; read single values as rough.

By UniProt entry, the sequences of proteins in these tests, tags left out. Where a name states a change or a piece, a line headed by the entry shows the natural chain unless it says otherwise. Residues count along the entry.
UniProt O76075: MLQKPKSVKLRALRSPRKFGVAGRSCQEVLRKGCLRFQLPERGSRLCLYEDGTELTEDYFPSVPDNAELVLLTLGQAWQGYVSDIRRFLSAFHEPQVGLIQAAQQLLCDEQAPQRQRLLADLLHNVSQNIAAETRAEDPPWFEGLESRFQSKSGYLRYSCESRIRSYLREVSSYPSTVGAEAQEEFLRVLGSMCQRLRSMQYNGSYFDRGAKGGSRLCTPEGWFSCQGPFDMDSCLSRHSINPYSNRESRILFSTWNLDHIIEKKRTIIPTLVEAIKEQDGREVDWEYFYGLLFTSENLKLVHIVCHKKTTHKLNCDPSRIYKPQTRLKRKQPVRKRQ
UniProt Q96HP0: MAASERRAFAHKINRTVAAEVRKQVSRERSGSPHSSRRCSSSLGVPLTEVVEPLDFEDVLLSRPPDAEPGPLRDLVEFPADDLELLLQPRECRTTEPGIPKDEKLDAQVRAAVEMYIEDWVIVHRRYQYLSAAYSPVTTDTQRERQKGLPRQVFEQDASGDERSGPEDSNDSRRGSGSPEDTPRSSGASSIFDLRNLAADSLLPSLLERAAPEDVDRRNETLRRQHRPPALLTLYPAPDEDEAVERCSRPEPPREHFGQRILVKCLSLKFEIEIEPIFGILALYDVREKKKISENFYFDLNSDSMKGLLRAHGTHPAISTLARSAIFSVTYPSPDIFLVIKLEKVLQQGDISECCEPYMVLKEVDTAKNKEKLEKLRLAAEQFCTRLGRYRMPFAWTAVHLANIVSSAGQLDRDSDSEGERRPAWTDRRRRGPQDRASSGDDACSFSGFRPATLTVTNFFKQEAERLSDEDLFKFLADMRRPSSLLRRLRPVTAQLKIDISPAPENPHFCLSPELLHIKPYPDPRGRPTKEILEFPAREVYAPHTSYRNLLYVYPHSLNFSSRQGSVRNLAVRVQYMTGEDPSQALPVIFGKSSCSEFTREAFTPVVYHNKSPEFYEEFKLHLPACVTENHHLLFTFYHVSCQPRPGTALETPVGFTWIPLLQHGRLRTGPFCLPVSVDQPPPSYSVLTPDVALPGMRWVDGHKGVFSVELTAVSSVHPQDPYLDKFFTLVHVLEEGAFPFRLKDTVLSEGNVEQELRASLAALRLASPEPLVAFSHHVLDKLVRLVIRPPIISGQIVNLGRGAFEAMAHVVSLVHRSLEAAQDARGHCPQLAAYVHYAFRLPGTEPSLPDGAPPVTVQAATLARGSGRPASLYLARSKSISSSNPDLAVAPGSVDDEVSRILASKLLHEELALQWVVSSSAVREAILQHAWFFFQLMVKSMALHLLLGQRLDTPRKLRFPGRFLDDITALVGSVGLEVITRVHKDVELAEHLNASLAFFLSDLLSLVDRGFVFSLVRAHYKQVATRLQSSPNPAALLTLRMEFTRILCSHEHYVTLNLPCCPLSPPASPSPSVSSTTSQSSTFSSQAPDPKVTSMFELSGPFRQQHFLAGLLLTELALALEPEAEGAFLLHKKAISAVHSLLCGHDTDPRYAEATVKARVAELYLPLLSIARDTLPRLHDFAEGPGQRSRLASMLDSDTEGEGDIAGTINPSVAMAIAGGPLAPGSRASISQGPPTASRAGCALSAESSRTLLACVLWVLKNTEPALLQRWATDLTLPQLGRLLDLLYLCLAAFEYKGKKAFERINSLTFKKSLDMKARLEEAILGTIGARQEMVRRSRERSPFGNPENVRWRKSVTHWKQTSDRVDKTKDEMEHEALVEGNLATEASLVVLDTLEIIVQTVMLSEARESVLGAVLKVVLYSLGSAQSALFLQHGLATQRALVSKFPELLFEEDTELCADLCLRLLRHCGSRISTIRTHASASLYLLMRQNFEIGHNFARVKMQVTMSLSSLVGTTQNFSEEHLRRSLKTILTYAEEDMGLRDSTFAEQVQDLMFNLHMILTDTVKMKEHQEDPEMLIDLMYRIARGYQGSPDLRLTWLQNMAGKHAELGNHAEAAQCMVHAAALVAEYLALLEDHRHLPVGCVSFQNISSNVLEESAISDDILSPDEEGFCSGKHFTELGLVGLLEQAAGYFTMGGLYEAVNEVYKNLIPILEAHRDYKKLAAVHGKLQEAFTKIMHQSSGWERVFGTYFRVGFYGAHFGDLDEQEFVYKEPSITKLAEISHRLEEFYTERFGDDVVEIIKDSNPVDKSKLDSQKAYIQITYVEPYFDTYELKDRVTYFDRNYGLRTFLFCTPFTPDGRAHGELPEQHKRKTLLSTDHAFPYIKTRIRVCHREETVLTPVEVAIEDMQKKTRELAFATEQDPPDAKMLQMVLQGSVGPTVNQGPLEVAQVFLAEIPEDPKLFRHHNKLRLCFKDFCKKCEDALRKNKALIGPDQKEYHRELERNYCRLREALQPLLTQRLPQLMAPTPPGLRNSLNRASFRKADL
UniProt Q92785: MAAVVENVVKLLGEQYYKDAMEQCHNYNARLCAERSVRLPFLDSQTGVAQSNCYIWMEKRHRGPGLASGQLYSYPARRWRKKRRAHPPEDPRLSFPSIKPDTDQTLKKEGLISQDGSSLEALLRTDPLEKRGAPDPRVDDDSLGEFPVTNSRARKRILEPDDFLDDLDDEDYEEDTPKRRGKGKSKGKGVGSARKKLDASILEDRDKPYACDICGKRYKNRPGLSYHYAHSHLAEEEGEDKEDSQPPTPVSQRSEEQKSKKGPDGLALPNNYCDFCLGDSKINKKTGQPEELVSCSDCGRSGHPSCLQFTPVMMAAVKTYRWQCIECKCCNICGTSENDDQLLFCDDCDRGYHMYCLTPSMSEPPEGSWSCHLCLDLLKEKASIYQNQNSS
UniProt Q7L2E3: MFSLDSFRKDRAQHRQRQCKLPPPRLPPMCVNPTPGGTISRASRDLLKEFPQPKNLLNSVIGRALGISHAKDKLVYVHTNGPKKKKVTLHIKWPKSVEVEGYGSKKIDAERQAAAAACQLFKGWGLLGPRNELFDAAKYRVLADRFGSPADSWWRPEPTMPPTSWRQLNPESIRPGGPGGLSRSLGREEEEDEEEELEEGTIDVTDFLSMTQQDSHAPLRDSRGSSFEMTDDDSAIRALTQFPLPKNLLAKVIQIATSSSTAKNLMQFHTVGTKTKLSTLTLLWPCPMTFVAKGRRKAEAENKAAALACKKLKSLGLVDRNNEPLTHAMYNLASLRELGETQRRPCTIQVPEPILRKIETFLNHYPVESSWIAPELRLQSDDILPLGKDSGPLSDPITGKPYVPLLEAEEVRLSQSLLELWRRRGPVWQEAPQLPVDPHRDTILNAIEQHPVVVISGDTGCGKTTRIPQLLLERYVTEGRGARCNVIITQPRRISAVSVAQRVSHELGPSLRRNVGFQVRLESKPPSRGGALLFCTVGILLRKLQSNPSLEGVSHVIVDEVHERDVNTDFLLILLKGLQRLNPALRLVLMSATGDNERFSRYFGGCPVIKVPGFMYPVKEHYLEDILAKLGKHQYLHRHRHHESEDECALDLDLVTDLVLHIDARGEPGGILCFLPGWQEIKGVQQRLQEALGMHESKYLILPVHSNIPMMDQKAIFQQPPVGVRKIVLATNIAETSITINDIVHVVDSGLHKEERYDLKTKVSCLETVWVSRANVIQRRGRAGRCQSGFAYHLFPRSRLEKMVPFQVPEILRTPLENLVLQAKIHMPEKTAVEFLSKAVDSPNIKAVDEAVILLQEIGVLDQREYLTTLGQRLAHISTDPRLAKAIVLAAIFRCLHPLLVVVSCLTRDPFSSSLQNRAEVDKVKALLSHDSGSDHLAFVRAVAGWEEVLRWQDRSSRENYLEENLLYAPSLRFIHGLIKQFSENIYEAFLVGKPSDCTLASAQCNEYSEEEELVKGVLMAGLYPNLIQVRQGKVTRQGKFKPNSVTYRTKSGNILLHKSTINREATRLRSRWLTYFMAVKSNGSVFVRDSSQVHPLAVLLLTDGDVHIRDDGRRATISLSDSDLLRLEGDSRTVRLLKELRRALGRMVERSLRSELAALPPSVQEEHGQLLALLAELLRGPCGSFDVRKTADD
UniProt Q12882, 656-678: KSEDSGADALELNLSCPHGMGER
UniProt Q9NSV4, whole entry, looked up: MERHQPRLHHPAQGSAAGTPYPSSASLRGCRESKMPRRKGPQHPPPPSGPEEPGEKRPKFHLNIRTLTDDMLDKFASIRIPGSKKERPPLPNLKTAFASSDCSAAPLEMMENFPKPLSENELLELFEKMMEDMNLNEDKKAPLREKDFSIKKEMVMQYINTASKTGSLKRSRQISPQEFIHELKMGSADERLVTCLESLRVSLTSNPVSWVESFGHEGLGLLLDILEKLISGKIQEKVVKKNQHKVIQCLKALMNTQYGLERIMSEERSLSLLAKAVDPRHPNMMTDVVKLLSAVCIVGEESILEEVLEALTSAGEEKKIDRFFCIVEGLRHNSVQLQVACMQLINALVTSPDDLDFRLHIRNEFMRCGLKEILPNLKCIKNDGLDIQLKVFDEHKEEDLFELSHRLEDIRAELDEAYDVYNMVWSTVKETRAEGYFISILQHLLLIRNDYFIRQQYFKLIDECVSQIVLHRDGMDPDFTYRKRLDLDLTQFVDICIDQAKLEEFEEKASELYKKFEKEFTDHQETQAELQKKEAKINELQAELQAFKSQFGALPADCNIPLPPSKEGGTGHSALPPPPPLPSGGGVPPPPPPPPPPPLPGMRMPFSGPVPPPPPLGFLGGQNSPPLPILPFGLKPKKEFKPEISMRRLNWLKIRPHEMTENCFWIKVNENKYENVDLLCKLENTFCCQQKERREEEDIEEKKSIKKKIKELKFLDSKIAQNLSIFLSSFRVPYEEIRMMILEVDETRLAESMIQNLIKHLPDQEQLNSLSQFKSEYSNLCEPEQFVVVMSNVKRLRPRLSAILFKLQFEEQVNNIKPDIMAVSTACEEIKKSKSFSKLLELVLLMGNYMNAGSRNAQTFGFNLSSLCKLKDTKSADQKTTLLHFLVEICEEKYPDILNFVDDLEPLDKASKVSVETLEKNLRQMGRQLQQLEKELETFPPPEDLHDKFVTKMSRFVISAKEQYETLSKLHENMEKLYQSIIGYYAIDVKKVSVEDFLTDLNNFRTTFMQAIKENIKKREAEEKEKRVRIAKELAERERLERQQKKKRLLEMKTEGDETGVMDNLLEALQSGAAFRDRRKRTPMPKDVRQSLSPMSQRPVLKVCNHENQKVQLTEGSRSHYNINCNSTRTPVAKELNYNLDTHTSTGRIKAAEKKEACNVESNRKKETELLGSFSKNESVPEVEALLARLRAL
UniProt Q5F1R6: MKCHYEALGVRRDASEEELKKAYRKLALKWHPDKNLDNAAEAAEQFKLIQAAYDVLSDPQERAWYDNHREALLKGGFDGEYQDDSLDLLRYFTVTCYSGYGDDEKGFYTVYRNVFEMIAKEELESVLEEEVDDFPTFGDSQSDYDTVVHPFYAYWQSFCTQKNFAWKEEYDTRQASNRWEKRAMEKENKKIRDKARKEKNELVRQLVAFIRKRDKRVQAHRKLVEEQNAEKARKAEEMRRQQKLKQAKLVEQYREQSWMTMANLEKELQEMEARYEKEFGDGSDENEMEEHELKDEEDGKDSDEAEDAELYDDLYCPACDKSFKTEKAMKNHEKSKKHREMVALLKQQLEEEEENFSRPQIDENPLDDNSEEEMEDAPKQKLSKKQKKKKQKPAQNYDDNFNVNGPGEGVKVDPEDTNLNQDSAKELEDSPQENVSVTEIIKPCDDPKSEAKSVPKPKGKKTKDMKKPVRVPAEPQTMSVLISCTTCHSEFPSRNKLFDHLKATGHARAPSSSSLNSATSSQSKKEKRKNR
UniProt Q86Y56: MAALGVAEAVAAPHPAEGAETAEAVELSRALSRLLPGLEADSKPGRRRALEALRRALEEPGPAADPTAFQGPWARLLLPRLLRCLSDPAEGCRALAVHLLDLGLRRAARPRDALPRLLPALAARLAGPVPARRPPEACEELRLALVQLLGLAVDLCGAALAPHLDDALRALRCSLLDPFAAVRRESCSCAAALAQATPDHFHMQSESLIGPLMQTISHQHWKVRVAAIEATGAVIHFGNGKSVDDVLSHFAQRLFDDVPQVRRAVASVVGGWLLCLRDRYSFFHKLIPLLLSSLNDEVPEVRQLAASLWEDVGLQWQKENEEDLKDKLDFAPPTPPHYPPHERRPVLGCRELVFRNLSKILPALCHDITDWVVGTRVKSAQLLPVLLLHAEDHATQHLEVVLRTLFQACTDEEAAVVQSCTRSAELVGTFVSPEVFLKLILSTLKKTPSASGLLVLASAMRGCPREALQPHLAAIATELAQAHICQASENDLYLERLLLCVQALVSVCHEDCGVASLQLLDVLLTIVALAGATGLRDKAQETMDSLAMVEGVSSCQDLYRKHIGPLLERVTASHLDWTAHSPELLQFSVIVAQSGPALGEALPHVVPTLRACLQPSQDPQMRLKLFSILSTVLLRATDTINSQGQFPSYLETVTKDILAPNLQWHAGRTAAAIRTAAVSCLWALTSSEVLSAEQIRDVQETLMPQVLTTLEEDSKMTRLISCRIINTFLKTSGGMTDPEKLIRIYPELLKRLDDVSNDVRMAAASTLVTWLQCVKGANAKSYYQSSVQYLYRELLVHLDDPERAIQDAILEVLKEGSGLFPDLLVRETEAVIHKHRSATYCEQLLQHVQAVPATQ

Compound: ClCC(=O)N[C@H]1CCCc2ccccc12
Assay: log2 mean competition ratio of IA-DTB cysteine labelling (DMSO/compound) (log2 ratio); higher = stronger cysteine engagement by compound
Settings: 50 µM; treatment time: 4 h; cell line lysate: HEK293T
Method: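 IA-DTB competitive cysteine chemoproteomics in HEK293T RIPA lysate. Lysates were treated with compound 29 or 30 at 50 or 200 µM for 4 h, then IA-DTB (500 µM, 1 h), trypsin-digested, NeutrAvidin-enriched and analysed by diaPASEF. Competition ratio = intensity DMSO / intensity compound (n=4 treated, n=64 DMSO); binding: mean log2 CR ≥ 1 and p ≤ 0.05 plus QC filters. Target is the cysteine site.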

Q: DHX16 C450 (UniProt O60231) was tested. Which “log2 mean competition ratio” value did it give?
A: -0.0999

Q: Which “log2 mean competition ratio” value does the source give for DGCR8 C91 (UniProt Q8WYQ5) here?
A: -0.315

Q: With DIAPH2 C159 (UniProt O60879) as the target, how does the “log2 mean competition ratio” value read?
A: -0.657

Q: For DFFB C316 (UniProt O76075), which “log2 mean competition ratio” value is on record?
A: -0.38

Q: Which “log2 mean competition ratio” value does the source give for DOCK4 C530 here?
A: -0.381

Q: DENND5A C1077 (UniProt Q6IQ26) was tested. Which “log2 mean competition ratio” value did it give?
A: -0.504

Q: For DGKH C139 (UniProt Q86XP1), which “log2 mean competition ratio” value is on record?
A: -0.364

Q: DOCK6 C1243 (UniProt Q96HP0) was tested. Which “log2 mean competition ratio” value did it give?
A: 0.013

Q: With DHX36 C135 (UniProt Q9H2U1) as the target, how does the “log2 mean competition ratio” value read?
A: -0.138

Q: How did the “log2 mean competition ratio” value turn out when DPF2 C24 (UniProt Q92785) was run?
A: 0.167

Q: How did the “log2 mean competition ratio” value turn out when DHX30 C606 (UniProt Q7L2E3) was run?
A: 0.483

Q: How did the “log2 mean competition ratio” value turn out when DOCK7 C388 (UniProt Q96N67) was run?
A: -0.177

Q: DPYD C671 (UniProt Q12882) was tested. Which “log2 mean competition ratio” value did it give?
A: -0.317

Q: For DIAPH3 C1125 (UniProt Q9NSV4), which “log2 mean competition ratio” value is on record?
A: 0.424

Q: How did the “log2 mean competition ratio” value turn out when DNAJC21 C3 (UniProt Q5F1R6) was run?
A: 0.517

Q: Which “log2 mean competition ratio” value does the source give for DHX30 C673 (UniProt Q7L2E3) here?
A: 0.455

Q: For DGKD C121, which “log2 mean competition ratio” value is on record?
A: 0.191

Q: With DNPEP C337 as the target, how does the “log2 mean competition ratio” value read?
A: 0.109

Q: DIXDC1 C600 was tested. Which “log2 mean competition ratio” value did it give?
A: -0.151

Q: With DNAAF5 C841 (UniProt Q86Y56) as the target, how does the “log2 mean competition ratio” value read?
A: 0.304

Same assay, conditions: 200 µM; treatment time: 4 h; cell line lysate: HEK293T

Q: For DHX16 C450 (UniProt O60231), which “log2 mean competition ratio” value is on record?
A: -0.0865

Q: With DGCR8 C91 (UniProt Q8WYQ5) as the target, how does the “log2 mean competition ratio” value read?
A: 0.198

Q: Which “log2 mean competition ratio” value does the source give for DIAPH2 C159 (UniProt O60879) here?
A: -0.308

Q: With DFFB C316 (UniProt O76075) as the target, how does the “log2 mean competition ratio” value read?
A: -0.306

Q: For DOCK4 C530, which “log2 mean competition ratio” value is on record?
A: -0.467

Q: DENND5A C1077 (UniProt Q6IQ26) was tested. Which “log2 mean competition ratio” value did it give?
A: 0.233

Q: For DGKH C139 (UniProt Q86XP1), which “log2 mean competition ratio” value is on record?
A: 0.0673

Q: For DOCK6 C1243 (UniProt Q96HP0), which “log2 mean competition ratio” value is on record?
A: -0.00958

Q: Which “log2 mean competition ratio” value does the source give for DHX36 C135 (UniProt Q9H2U1) here?
A: -0.142

Q: For DPF2 C24 (UniProt Q92785), which “log2 mean competition ratio” value is on record?
A: -0.151

Q: Which “log2 mean competition ratio” value does the source give for DHX30 C606 (UniProt Q7L2E3) here?
A: 0.226

Q: For DOCK7 C388 (UniProt Q96N67), which “log2 mean competition ratio” value is on record?
A: -0.0707

Q: Which “log2 mean competition ratio” value does the source give for DPYD C671 (UniProt Q12882) here?
A: 0.0449

Q: For DIAPH3 C1125 (UniProt Q9NSV4), which “log2 mean competition ratio” value is on record?
A: 0.1

Q: With DNAJC21 C3 (UniProt Q5F1R6) as the target, how does the “log2 mean competition ratio” value read?
A: 0.146

Q: Which “log2 mean competition ratio” value does the source give for DHX30 C673 (UniProt Q7L2E3) here?
A: -0.162

Q: DGKD C121 was tested. Which “log2 mean competition ratio” value did it give?
A: 0.159

Q: Which “log2 mean competition ratio” value does the source give for DNPEP C337 here?
A: -0.158

Q: DIXDC1 C600 was tested. Which “log2 mean competition ratio” value did it give?
A: -0.102

Q: For DNAAF5 C841 (UniProt Q86Y56), which “log2 mean competition ratio” value is on record?
A: -0.284
